Data: PubChem BioAssay AID743255 (National Center for Advancing Translational Sciences (NCATS), 2014)
In all, about 390,000 compounds went through this assay and about 910 (0.23%) were called active. This list was built around the results that the source calls inconclusive (neither active nor inactive); the mix of calls is not that of the screen. Calls follow the shape of the dose curve; as a rule, active = well fitted inhibition curve with a large enough effect; inconclusive = small, poorly fitted or top-dose-only effect; inactive = no such curve, though single readings can be large or run the other way. A potency beside an inconclusive call is a rough fit, not a confirmed value.

Amino acid sequences for entries named in this document (tags omitted). A change or cut given only in a name is not applied to a line headed by its entry.
UniProt O94782: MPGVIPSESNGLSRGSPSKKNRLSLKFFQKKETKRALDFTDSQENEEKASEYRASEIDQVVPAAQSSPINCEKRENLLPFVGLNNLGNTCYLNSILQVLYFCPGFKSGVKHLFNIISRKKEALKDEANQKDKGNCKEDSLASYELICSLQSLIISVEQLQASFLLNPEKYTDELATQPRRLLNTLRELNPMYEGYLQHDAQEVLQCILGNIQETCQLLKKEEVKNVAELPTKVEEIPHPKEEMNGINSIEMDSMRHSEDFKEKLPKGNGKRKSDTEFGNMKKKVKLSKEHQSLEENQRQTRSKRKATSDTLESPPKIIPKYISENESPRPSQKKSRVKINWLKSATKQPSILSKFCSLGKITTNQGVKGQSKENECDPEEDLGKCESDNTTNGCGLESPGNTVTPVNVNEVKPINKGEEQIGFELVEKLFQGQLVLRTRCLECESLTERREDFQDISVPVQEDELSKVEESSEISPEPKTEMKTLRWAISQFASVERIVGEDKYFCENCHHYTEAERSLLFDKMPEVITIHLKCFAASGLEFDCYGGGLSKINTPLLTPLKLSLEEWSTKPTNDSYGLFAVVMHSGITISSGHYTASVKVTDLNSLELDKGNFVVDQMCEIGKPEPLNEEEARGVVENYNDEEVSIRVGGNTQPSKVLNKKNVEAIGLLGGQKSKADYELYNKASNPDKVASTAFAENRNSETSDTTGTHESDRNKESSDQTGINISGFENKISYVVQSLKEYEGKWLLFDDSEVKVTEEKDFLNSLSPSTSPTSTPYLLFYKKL

What follows are molecules tested against Ubiquitin carboxyl-terminal hydrolase 1 (Homo sapiens) (UniProt O94782) (assay: Inhibitors of USP1/UAF1: Primary Screen). Details: recombinant USP1/UAF1, Ub-Rhodamine cleavage fluorescence; series mostly up to 57.1 µM.
Procedure, shortened: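 USP1/UAF1 complex at 1 nM was preincubated with compound for 15 min at room temperature, then Ub-Rho substrate (150nM final) was added. Fluorescence (480/540 nm) was read kinetically, 6 reads every 60 seconds.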
Also: nearly all actives have a fitted effect of over 60% in size.
Potency is read from the fitted curve at half-maximal effect.

SMILES	Potency
O=C(COC(=O)C1CC1)Nc1ccc(S(=O)(=O)N2CCOCC2)cc1	inconclusive: 3.98 µM [inhibitor, full curve, poor fit]
NC(=O)NOCc1ccc(F)cc1Cl	inactive
COc1ccc(CN(Cc2cccnc2)S(=O)(=O)c2ccc(-n3cnnn3)c(OC)c2)cc1	inconclusive: 0.355 µM [inhibitor, partial curve, poor fit]
CCNc1cc(N2CCN(C3CCCCC3)CC2)c2noc3c2c1C(=O)c1ccccc1-3	inconclusive: 31.6 µM [inhibitor, partial curve, poor fit]
c1ccc(Cn2cc(CSc3ccccc3)nn2)cc1	inconclusive: 1.41 µM [inhibitor, full curve, poor fit]
COc1ccc(-c2cn3nc(N4CCCC(C(=O)Nc5cccc(Cl)c5C)C4)sc3n2)cc1 (centres undefined)	inconclusive: 112 µM [inhibitor, partial curve, poor fit]
CCOC(=O)[C@H]1[C@H]2COc3cc(OC)ccc3[C@@H]2N2C(=O)CN(Cc3ccccc3)C(=O)[C@@]12C	inconclusive: 0.251 µM [inhibitor, full curve, poor fit]
CCN(CC)c1ccc(/C=N/NC(=O)Nc2ccccc2)cc1	inconclusive: 31.6 µM [inhibitor, partial curve]
Cc1ccc2cc(CN(C)C(=O)c3cccc(Cl)c3)c(=O)[nH]c2c1	inconclusive: 6.31 µM [inhibitor, single point]
Cc1ccc(Cl)cc1NC(=O)N1CCC(CN2CCCCCC2)CC1	inconclusive: 0.398 µM [inhibitor, full curve, poor fit]
Cc1ccc2nc(-c3cccc(NC(=O)c4ccc(Br)o4)c3)oc2c1	inconclusive: 44.7 µM [inhibitor, partial curve, poor fit]
O=C(Nc1ccccc1F)Nc1cc(Cl)ccc1-n1cncn1	inconclusive: 7.94 µM [inhibitor, partial curve]
COc1ccc(-c2cc3nc(-c4ccccc4)cc(N4CCN(C(=O)c5ccoc5)CC4)n3n2)cc1	inconclusive: 0.282 µM [inhibitor, full curve]
Cc1ccc(CC2CC(=O)N(CCc3ccccc3)C2=O)cc1 (centres undefined)	inconclusive: 0.631 µM [inhibitor, full curve, poor fit]
O=C(Nc1ccc(F)c(Cl)c1)C1CCN(S(=O)(=O)c2ccc3[nH]c(=O)ccc3c2)CC1	inconclusive: 31.6 µM [inhibitor, partial curve]
CCCCNc1nc2c(c(=O)n(C)c(=O)n2C)n1CC(O)COc1ccccc1C (centres undefined)	inactive
O=C1/C(=C/c2ccc(O)cc2)SC(=S)N1CC1CCCO1 (centres undefined)	inconclusive: 35.5 µM [inhibitor, partial curve]
CCOc1ccc(S(=O)(=O)Nc2ccc3oc(C)c(C(=O)OC(C)C)c3c2)cc1	inconclusive: 12.6 µM [inhibitor, partial curve]
O=C(/C=C\Nc1ccc2c(c1)OCO2)c1cccs1	inactive
Cc1cc(C)n(-c2nc3ccccc3nc2Nc2ccc(Cl)c(Cl)c2)n1	inactive

7 consecutive compounds out of the list so far, for reference:
SMILES	Potency
CCOC(=O)[C@H]1[C@H]2COc3cc(OC)ccc3[C@@H]2N2C(=O)CN(Cc3ccccc3)C(=O)[C@@]12C	inconclusive: 0.251 µM [inhibitor, full curve, poor fit]
CCN(CC)c1ccc(/C=N/NC(=O)Nc2ccccc2)cc1	inconclusive: 31.6 µM [inhibitor, partial curve]
Cc1ccc2cc(CN(C)C(=O)c3cccc(Cl)c3)c(=O)[nH]c2c1	inconclusive: 6.31 µM [inhibitor, single point]
Cc1ccc(Cl)cc1NC(=O)N1CCC(CN2CCCCCC2)CC1	inconclusive: 0.398 µM [inhibitor, full curve, poor fit]
Cc1ccc2nc(-c3cccc(NC(=O)c4ccc(Br)o4)c3)oc2c1	inconclusive: 44.7 µM [inhibitor, partial curve, poor fit]
O=C(Nc1ccccc1F)Nc1cc(Cl)ccc1-n1cncn1	inconclusive: 7.94 µM [inhibitor, partial curve]
COc1ccc(-c2cc3nc(-c4ccccc4)cc(N4CCN(C(=O)c5ccoc5)CC4)n3n2)cc1	inconclusive: 0.282 µM [inhibitor, full curve]

The listing continues:

SMILES	Potency
COC(=O)c1ccc(NC(=O)CC2Nc3cc(C)c(C)cc3NC2=O)cc1 (centres undefined)	inconclusive: 39.8 µM [inhibitor, partial curve]
Cc1cc([N+](=O)[O-])cc(C)c1OCC(=O)N/N=C/c1ccc(OC(=O)c2ccccc2Br)cc1	inactive
CC(C)(C)OC(=O)N1CCC(NC(=O)c2nc[nH]c2C(=O)N2CCN(c3ccccc3)CC2)CC1	inconclusive: 5.62 µM [inhibitor, partial curve]
COc1cc(C)c(Br)cc1S(=O)(=O)NCc1ccccc1	inconclusive: 31.6 µM [inhibitor, partial curve]
C[n+]1ccccc1/C=N/O	inconclusive: 79.4 µM [inhibitor, partial curve, poor fit]
COc1ccc(C2c3c(n(C)c4ccccc34)C(=O)N2CC(=O)Nc2cc(Cl)ccc2C)cc1 (centres undefined)	inconclusive: 112 µM [inhibitor, partial curve, poor fit]
CCCc1cc(=O)n2[nH]c(NC(=O)c3ccccc3Cl)nc2n1	inactive
COc1ccc2c(c1)cc1c(=O)n(CC(=O)NCCCOC(C)C)nc(C)n12	inconclusive: 5.62 µM [inhibitor, partial curve]
CSCCC(NS(=O)(=O)c1ccc2c(c1)oc(=O)n2C)C(=O)Nc1ccc(Cl)cc1 (centres undefined)	inconclusive: 12.6 µM [inhibitor, partial curve, poor fit]
CC(C)c1ccc(CNc2nc(-c3ccco3)nn2C(=O)c2ccc([N+](=O)[O-])cc2)cc1	inconclusive: 11.2 µM [inhibitor, single point]
CSc1nsc(/C=C/Nc2ccc(C)cc2)c1C#N	inconclusive: 39.8 µM [inhibitor, partial curve]
COC(=O)c1ccccc1NC(=O)Cn1c(=O)n(CCC(=O)NCc2ccccc2OC)c(=O)c2ccccc21	inactive
c1csc(-c2csc3nc(CN4CCOCC4)nc(NCc4ccc5c(c4)OCO5)c23)c1	inconclusive: 50.1 µM [inhibitor, partial curve, poor fit]
COc1ccc(Cl)cc1S(=O)(=O)Nc1cccc(-c2ccc(N3CCCC3)nn2)c1	inactive
Cc1ccc[n+](-c2nc([O-])sc2C=O)c1	active: 28.2 µM
COc1ccc(C2=CC3=C(Br)C(=O)C(C)(OC(=O)C4CCCC4)C(=O)C3=CO2)cc1 (centres undefined)	inconclusive: 35.5 µM [inhibitor, partial curve, poor fit]
CCn1c2ccccc2nc2cc3c(cc21)c(Cl)c(=O)c1ccccc13	inconclusive: 28.2 µM [inhibitor, partial curve]
C[C@]12c3[nH]c4ccc(Cl)cc4c3CCN1C(=O)[C@@H](CC(=O)NCc1cccc(C(F)(F)F)c1)C[C@@H]2C(=O)N1CCCCC1	inconclusive: 44.7 µM [inhibitor, partial curve, poor fit]
COc1ccc(N2CCN(C(C)C(=O)N3CCc4ccccc43)CC2)cc1 (centres undefined)	inconclusive: 3.98 µM [inhibitor, full curve, poor fit]
